Data from paper doi:10.1101/493791.

Assays:
Flag-FBXW7γ (human) = assay: co-IP
Flag-FBXW7β (human) = assay: co-IP

binding (Flag-FBXW7γ (human)): no binding
binding (Flag-FBXW7β (human)): no binding
B1: FBXO45 (endogenous) (protein, UniProt P0C2W1 1-286)
chain: MAAPAPGAGAASGGAGCSGGGAGAGAGSGSGAAGAGGRLPSRVLELVFSYLELSELRSCALVCKHWYRCLHGDENSEVWRSLCARSLAEEALRTDILCNLPSYKAKIRAFQHAFSTNDCSRNVYIKKNGFTLHRNPIAQSTDGARTKIGFSEGRHAWEVWWEGPLGTVAVIGIATKRAPMQCQGYVALLGSDDQSWGWNLVDNNLLHNGEVNGSFPQCNNAPKYQIGERIRVILDMEDKTLAFERGYEFLGVAFRGLPKVCLYPAVSAVYGNTEVTLVYLGKPLDG

Results are given in words; binding and its absence hold for the method and conditions named. Binding seen in cells or lysates may run through a third protein.
